Reference: publication PMC6467423
These are yes or no findings as the source states them, for the method shown. In cells and extracts the contact can be indirect. Some binding calls cover weakened binding; strength is not graded here. Sequences can lack the tags named with a protein.

The chains behind the UniProt entries cited, without tags or fusion partners.
UniProt O64645: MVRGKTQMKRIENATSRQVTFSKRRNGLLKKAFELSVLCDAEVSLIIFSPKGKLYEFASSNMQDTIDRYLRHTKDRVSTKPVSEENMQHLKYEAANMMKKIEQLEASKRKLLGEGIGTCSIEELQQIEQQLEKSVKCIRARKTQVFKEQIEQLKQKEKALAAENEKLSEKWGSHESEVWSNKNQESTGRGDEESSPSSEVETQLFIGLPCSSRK

Molecular target: T1, GFP:rSPL9 (SQUAMOSA PROMOTER BINDING PROTEIN-LIKE 9) (Arabidopsis thaliana) (UniProt Q700W2)
T1 sequence: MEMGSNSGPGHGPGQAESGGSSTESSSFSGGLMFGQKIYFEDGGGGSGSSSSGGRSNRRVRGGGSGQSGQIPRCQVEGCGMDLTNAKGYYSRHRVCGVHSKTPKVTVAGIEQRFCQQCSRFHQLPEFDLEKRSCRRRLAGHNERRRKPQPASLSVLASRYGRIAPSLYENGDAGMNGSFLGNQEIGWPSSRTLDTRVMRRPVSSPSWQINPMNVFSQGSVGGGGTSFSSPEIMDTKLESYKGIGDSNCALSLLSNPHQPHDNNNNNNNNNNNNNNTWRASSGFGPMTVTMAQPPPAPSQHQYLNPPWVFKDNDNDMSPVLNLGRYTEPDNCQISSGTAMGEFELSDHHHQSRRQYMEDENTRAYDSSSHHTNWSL
Assay: co-IP; in vivo co-immunoprecipitation from protein extracts of shoot apical tissue of SPL9::GFP:rSPL9 35S::SOC1:MYC(9x) plants; 1 mg protein for immunoprecipitation

binding: binds
Substance: SOC1:MYC(9x) (SUPPRESSOR OF OVEREXPRESSION OF CONSTANS 1) (from UniProt O64645 1-214)
